# Assay results taken from PMC4882497 (British Journal of Pharmacology, 2016).
# Test: general procedure: Fmoc solid-phase peptide synthesis; Rink amide resin (Iris Biotech; loading capacity 0.7 mmol/g)
# Conditions: whole synthesis, analytical HPLC, Jupiter Proteo 90 Å 4.6 × 250 mm; identity by MALDI-TOF/TOF MS
substance,measurement,value
[K^30(PEG2)]hPP2‐36,final HPLC purity,>95%
